Where a name gives a salt, the structure may show the parent alone. The list shows a part of the results. Repeats in this data set agree poorly, so a single value says little.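 A first-round screen of about ten thousand compounds sought those raising reporter output, using human embryonic kidney cells briefly transfected with a plasmid carrying a Renilla luciferase gene driven by the HSV-TK promoter.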
What follows are compounds tested on HEK 293FT (assay: log relative Renilla luciferase luminescence (reporter expression vs reference, reference not stated) (log (base not stated)); higher = higher recombinant reporter expression). Settings: 10 µM; time after transfection 48 h.

c1cnc(N2CCN(Cc3ccc4c(c3)OCO4)CC2)nc1 [Piribedil] and CN(Cc1ccccc1)C(=O)[C@H](Cc1ccc2ccccc2c1)NC(=O)[C@@H]1C[C@@H](O)CN1C(=O)c1cn(C)c2ccccc12 are within 0.2 log units of each other in log: -0.0311 for the first, -0.0455 for the second.

COc1ccccc1OCCNCC(O)COc1cccc2[nH]c3ccccc3c12 (configuration not stated) [Carvedilol] and CC1=C(C(=O)OCCN(Cc2ccccc2)c2ccccc2)C(c2cccc([N+](=O)[O-])c2)C(P2(=O)OCC(C)(C)CO2)=C(C)N1 (configuration not stated) [Efonidipine hydrochloride monoethanolate] are within 0.2 log units of each other in log: 0.00231 for the first, -0.079 for the second.

CCN1CCCC1CNC(=O)c1cc(S(=O)(=O)CC)c(N)cc1OC (configuration not stated) [Amisulpride] and CCCC(=O)Nc1ncnc2c1ncn2[C@@H]1O[C@@H]2COP(=O)(O)O[C@H]2[C@H]1OC(=O)CCC [Dibutyryl-cAMP, sodium salt] are within 0.2 log units of each other in log: 0.027 for the first, -0.0785 for the second.

CC[C@H](C)C(=O)O[C@H]1C[C@@H](C)C=C2C=C[C@H](C)[C@H](CC[C@@H]3C[C@@H](O)CC(=O)O3)[C@H]21 [Lovastatin] showed a log of 0.109.
